The results in this text go back to PMC8384837.

Where a chain is given by its changes, count along the chain named. The list shows a part of the results. For some of these results: At the low end of the ranking, values are background and their order means little. For some of these results: Construct or isoform of the protein are uncertain. Some results are limits rather than exact numbers.

What all share (conditions): yeast three-hybrid, YBZ-1, SC-Leu-His + 0.5 mM 3-AT, 4 days
Assay [1] concerns the target T1, PUM1 PUF domain R1-QFR R2-VFQ R7-NPG S863Q + R864F + Q867R + N899V + Y900F + S1079N + N1080P + E1083G (UniProt Q14671).
T1 sequence: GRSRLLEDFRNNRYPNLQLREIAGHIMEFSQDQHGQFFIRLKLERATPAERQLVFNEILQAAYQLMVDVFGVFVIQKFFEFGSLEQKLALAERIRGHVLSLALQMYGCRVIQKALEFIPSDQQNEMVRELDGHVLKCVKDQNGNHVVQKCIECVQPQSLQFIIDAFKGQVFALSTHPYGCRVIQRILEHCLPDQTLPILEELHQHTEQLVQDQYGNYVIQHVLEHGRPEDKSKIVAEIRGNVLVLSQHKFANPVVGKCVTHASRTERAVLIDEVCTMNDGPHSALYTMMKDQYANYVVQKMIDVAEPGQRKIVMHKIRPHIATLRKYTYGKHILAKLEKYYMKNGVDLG

Assay [2] concerns the target T2, PUM1 PUF domain R2-VFQ R3-THE R4-TFR N899V + Y900F + C935T + R936H + Q939E + N971T + H972F + Q975R (UniProt Q14671).
T2 sequence: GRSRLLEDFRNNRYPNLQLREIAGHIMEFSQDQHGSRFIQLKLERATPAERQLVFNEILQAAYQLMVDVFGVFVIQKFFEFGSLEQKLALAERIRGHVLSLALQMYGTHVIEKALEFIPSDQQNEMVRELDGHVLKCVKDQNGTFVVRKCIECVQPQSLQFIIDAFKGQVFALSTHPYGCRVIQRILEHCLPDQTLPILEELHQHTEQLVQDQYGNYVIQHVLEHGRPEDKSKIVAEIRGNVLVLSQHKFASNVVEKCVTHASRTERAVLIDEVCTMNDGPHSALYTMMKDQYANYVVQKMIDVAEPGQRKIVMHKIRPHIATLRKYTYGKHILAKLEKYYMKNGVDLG

In assay [3] the target is T3, PUM1 PUF domain R5-PHQ R6-SWD C1007P + R1008H + N1043S + Y1044W + Q1047D (UniProt Q14671).
T3 sequence: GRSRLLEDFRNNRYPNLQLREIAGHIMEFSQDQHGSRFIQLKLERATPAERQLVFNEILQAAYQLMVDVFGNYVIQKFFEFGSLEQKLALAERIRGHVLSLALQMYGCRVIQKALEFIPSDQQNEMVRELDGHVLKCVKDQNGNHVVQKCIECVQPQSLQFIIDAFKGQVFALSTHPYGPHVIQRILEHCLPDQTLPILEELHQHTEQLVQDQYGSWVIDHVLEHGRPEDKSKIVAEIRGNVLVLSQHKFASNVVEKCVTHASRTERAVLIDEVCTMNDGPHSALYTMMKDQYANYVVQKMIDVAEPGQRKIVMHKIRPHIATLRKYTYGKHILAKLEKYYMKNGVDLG

The target in assay [4] is T4, PUM1 PUF domain R3-THE R4-TFR R7-NPG C935T + R936H + Q939E + N971T + H972F + Q975R + S1079N + N1080P + E1083G (UniProt Q14671).
T4 sequence: T2 sequence with V72N, F73Y, S252N, N253P, E256G

The target of assay [5] is T5, PUM1 PUF domain R3-THE R4-TFR R7-NPG C935T + R936H + Q939E + N971T + H972F + Q975R + S1079N + N1080P + E1083G (Homo sapiens) (UniProt Q14671).
T5 sequence: T2 sequence with V72N, F73Y, S252N, N253P, E256G

The target of assay [6] is T6, PUM1 PUF domain R6-SWD R7-NPG N1043S + Y1044W + Q1047D + S1079N + N1080P + E1083G (Homo sapiens) (UniProt Q14671).
T6 sequence: T3 sequence with P180C, H181R, S252N, N253P, E256G

Regarding “GGCUAGAACUAGUGGAUCCCCCGGCGCCCGGCGGCUCGAGCCCGGGUAAGUGCAUAAAGUCUGCAUGCCGCCGGGCGCCAUGCCUGCAGGUCGACUCUAGAAAACAUG”, the binding signal (log2 enrichment (interaction score)) is -4.75 in assay [1], -5.35 in assay [2] and below -6.94 in assay [3].
Taken in the same sequence, the figures for “GGCUAGAACUAGUGGAUCCCCCGGCGCCCGGCGGCUCGAGCCCGGGUAAGCGGACAUCGUCUGCAUGCCGCCGGGCGCCAUGCCUGCAGGUCGACUCUAGAAAACAUG” were -5.14, -5.46 and -6.8.
As to “GGCUAGAACUAGUGGAUCCCCCGGCGCCCGGCGGCUCGAGCCCGGGUAAGUUGCAGACGUCUGCAUGCCGCCGGGCGCCAUGCCUGCAGGUCGACUCUAGAAAACAUG”, the figures for the binding signal (log2 enrichment (interaction score)) in assay [1], in assay [2] and in assay [4] were below -5.91, -5.37 and -3.41, respectively.
With “GGCUAGAACUAGUGGAUCCCCCGGCGCCCGGCGGCUCGAGCCCGGGUAAGUUGAACAAGUCUGCAUGCCGCCGGGCGCCAUGCCUGCAGGUCGACUCUAGAAAACAUG”, the binding signal (log2 enrichment (interaction score)) in assay [1] is -7.06; in assay [2], -6.86; in assay [5], -1.99; in assay [3], -8.09.
“GGCUAGAACUAGUGGAUCCCCCGGCGCCCGGCGGCUCGAGCCCGGGUAAGAUGAACAAGUCUGCAUGCCGCCGGGCGCCAUGCCUGCAGGUCGACUCUAGAAAACAUG”: the figures for the binding signal (log2 enrichment (interaction score)) in assay [1], in assay [2] and in assay [3] were below -5.55, -4.59 and below -7.98, respectively.
In the same order, the values of “GGCUAGAACUAGUGGAUCCCCCGGCGCCCGGCGGCUCGAGCCCGGGUAAGAGGUCGUCGUCUGCAUGCCGCCGGGCGCCAUGCCUGCAGGUCGACUCUAGAAAACAUG” are below -5.71, -5.08 and -7.79.
For the sequence “GGCUAGAACUAGUGGAUCCCCCGGCGCCCGGCGGCUCGAGCCCGGGUAAGUUCCCGUCGUCUGCAUGCCGCCGGGCGCCAUGCCUGCAGGUCGACUCUAGAAAACAUG”, the binding signal (log2 enrichment (interaction score)) is -5.18 in assay [1], -5.35 in assay [2] and -2.14 in assay [4].
For “GGCUAGAACUAGUGGAUCCCCCGGCGCCCGGCGGCUCGAGCCCGGGUAAGUGGGAACAGUCUGCAUGCCGCCGGGCGCCAUGCCUGCAGGUCGACUCUAGAAAACAUG”, the binding signal (log2 enrichment (interaction score)) in assay [1] is -5.74; in assay [2], -6.12; in assay [3], -8.02.
As for “GGCUAGAACUAGUGGAUCCCCCGGCGCCCGGCGGCUCGAGCCCGGGUAAGUUGAAGCCGUCUGCAUGCCGCCGGGCGCCAUGCCUGCAGGUCGACUCUAGAAAACAUG”, the binding signal (log2 enrichment (interaction score)) is -4.29 in assay [1], below -6.61 in assay [2], -1.99 in assay [5] and below -7.27 in assay [3].
As to “GGCUAGAACUAGUGGAUCCCCCGGCGCCCGGCGGCUCGAGCCCGGGUAAGUUUACGAUGUCUGCAUGCCGCCGGGCGCCAUGCCUGCAGGUCGACUCUAGAAAACAUG”, the values for the binding signal (log2 enrichment (interaction score)) in assay [1], in assay [2] and in assay [4] were -6.45, -6.06 and -2.12, respectively.
For the sequence “GGCUAGAACUAGUGGAUCCCCCGGCGCCCGGCGGCUCGAGCCCGGGUAAGUUGCAGCGGUCUGCAUGCCGCCGGGCGCCAUGCCUGCAGGUCGACUCUAGAAAACAUG”, the binding signal (log2 enrichment (interaction score)) was -4.94 in assay [1], -6.33 in assay [2], -2.3 in assay [4] and -1.96 in assay [6].
“GGCUAGAACUAGUGGAUCCCCCGGCGCCCGGCGGCUCGAGCCCGGGUAAGUGUGAAUCGUCUGCAUGCCGCCGGGCGCCAUGCCUGCAGGUCGACUCUAGAAAACAUG”: the results for the binding signal (log2 enrichment (interaction score)) in assay [1], in assay [2] and in assay [3] were -5.95, -5.81 and -6.8, respectively.
With “GGCUAGAACUAGUGGAUCCCCCGGCGCCCGGCGGCUCGAGCCCGGGUAAGUUAAAAAAGUCUGCAUGCCGCCGGGCGCCAUGCCUGCAGGUCGACUCUAGAAAACAUG”, the binding signal (log2 enrichment (interaction score)) in assay [1] was -5.97; in assay [2] it was -5.33; in assay [5], -1.17; in assay [3], below -9.37; in assay [6], -1.9.
Take “GGCUAGAACUAGUGGAUCCCCCGGCGCCCGGCGGCUCGAGCCCGGGUAAGUUGCCAUAGUCUGCAUGCCGCCGGGCGCCAUGCCUGCAGGUCGACUCUAGAAAACAUG”: the binding signal (log2 enrichment (interaction score)) in assay [1] was below -6.96; in assay [2], -6.31; in assay [4], -2.11; in assay [3], -8.77; in assay [6], -1.79.
For “GGCUAGAACUAGUGGAUCCCCCGGCGCCCGGCGGCUCGAGCCCGGGUAAGACUUAGUAGUCUGCAUGCCGCCGGGCGCCAUGCCUGCAGGUCGACUCUAGAAAACAUG”, the binding signal (log2 enrichment (interaction score)) in assay [1] is -6.17; in assay [2], -5.6; in assay [3], below -7.61.
“GGCUAGAACUAGUGGAUCCCCCGGCGCCCGGCGGCUCGAGCCCGGGUAAGUUGACACAGUCUGCAUGCCGCCGGGCGCCAUGCCUGCAGGUCGACUCUAGAAAACAUG”: the values for the binding signal (log2 enrichment (interaction score)) in assay [1], in assay [2] and in assay [3] were below -5.64, -5.31 and -8.32, respectively.
As to “GGCUAGAACUAGUGGAUCCCCCGGCGCCCGGCGGCUCGAGCCCGGGUAAGUGUACGUAGUCUGCAUGCCGCCGGGCGCCAUGCCUGCAGGUCGACUCUAGAAAACAUG”, the binding signal (log2 enrichment (interaction score)) in assay [1] is -6.11; in assay [2], -5.32; in assay [5], -1.99; in assay [3] it was -7.8; in assay [6], -0.92.
As to “GGCUAGAACUAGUGGAUCCCCCGGCGCCCGGCGGCUCGAGCCCGGGUAAGUAGAAGUAGUCUGCAUGCCGCCGGGCGCCAUGCCUGCAGGUCGACUCUAGAAAACAUG”, the binding signal (log2 enrichment (interaction score)) in assay [1] was -4.86; in assay [2], -5.74; in assay [4], -2.12; in assay [3], below -8.51.
Consider “GGCUAGAACUAGUGGAUCCCCCGGCGCCCGGCGGCUCGAGCCCGGGUAAGUACAGACAGUCUGCAUGCCGCCGGGCGCCAUGCCUGCAGGUCGACUCUAGAAAACAUG”, for which the figures for the binding signal (log2 enrichment (interaction score)) in assay [1], in assay [2] and in assay [5] were -6.31, -4.94 and -0.82, respectively.
For the sequence “GGCUAGAACUAGUGGAUCCCCCGGCGCCCGGCGGCUCGAGCCCGGGUAAGUUUAAGAGGUCUGCAUGCCGCCGGGCGCCAUGCCUGCAGGUCGACUCUAGAAAACAUG”, the binding signal (log2 enrichment (interaction score)) was -6.77 in assay [1], -6.5 in assay [2] and -1.6 in assay [5].
With “GGCUAGAACUAGUGGAUCCCCCGGCGCCCGGCGGCUCGAGCCCGGGUAAGGUGAUUAAGUCUGCAUGCCGCCGGGCGCCAUGCCUGCAGGUCGACUCUAGAAAACAUG”, the binding signal (log2 enrichment (interaction score)) was -6.6 in assay [1], -5.55 in assay [2], -2.03 in assay [4] and -0.93 in assay [6].
Take “GGCUAGAACUAGUGGAUCCCCCGGCGCCCGGCGGCUCGAGCCCGGGUAAGUUUAAAAGGUCUGCAUGCCGCCGGGCGCCAUGCCUGCAGGUCGACUCUAGAAAACAUG”: the binding signal (log2 enrichment (interaction score)) in assay [1] was -4.5; in assay [2] it was -5.59; in assay [5] it was -0.78; in assay [3] it was -7.25.
For the sequence “GGCUAGAACUAGUGGAUCCCCCGGCGCCCGGCGGCUCGAGCCCGGGUAAGAGGAAACUGUCUGCAUGCCGCCGGGCGCCAUGCCUGCAGGUCGACUCUAGAAAACAUG”, the binding signal (log2 enrichment (interaction score)) in assay [1] is -5.66; in assay [2], -5.55; in assay [5], -1.47; in assay [3], below -7.62.
